Results are given in words; binding and its absence hold for the method and conditions named. In cells and extracts the contact can be indirect. Some results given as binding are weak or reduced against the parent protein; the word gives no strength. For some of these results: Where a sequence is shown, tags or fusion partners need not be part of it.

Assay [1] concerns the target T1, dynamin 1 (M17 neuroblastoma cells) (human (endogenous in SK-N-BE(2)-M17)) (UniProt Q05193).
T1 sequence: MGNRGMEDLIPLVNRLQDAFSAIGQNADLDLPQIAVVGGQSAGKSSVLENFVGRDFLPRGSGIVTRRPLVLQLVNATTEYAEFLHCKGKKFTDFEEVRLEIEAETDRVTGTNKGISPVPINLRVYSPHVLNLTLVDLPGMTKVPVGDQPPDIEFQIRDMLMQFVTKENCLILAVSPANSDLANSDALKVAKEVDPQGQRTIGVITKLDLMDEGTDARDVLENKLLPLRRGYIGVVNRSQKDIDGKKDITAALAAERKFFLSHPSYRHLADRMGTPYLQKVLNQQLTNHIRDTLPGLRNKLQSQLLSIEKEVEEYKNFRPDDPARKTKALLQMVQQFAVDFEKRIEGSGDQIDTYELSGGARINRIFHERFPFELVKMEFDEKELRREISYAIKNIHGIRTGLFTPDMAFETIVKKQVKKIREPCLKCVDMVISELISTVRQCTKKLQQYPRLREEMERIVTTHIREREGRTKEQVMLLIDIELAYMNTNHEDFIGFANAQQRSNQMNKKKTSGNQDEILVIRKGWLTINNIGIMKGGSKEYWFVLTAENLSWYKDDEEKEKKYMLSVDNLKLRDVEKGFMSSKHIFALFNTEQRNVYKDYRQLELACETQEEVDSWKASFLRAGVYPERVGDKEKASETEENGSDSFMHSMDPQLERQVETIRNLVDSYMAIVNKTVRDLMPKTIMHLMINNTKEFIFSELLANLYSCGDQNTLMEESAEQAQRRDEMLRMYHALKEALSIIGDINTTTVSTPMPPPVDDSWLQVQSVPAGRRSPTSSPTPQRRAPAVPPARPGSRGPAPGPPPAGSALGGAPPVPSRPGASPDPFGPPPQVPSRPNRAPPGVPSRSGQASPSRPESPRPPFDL
Put plainly: proximity ligation; fixed SK-N-BE(2)-M17 cells; antibodies against 14-3-3θ and β-spectrin or dynamin 1; single-antibody controls.

Assay [2] concerns the target T2, dynamin 1 (mouse cortex) (mouse (endogenous in cortex)) (UniProt P39053).
T2 sequence: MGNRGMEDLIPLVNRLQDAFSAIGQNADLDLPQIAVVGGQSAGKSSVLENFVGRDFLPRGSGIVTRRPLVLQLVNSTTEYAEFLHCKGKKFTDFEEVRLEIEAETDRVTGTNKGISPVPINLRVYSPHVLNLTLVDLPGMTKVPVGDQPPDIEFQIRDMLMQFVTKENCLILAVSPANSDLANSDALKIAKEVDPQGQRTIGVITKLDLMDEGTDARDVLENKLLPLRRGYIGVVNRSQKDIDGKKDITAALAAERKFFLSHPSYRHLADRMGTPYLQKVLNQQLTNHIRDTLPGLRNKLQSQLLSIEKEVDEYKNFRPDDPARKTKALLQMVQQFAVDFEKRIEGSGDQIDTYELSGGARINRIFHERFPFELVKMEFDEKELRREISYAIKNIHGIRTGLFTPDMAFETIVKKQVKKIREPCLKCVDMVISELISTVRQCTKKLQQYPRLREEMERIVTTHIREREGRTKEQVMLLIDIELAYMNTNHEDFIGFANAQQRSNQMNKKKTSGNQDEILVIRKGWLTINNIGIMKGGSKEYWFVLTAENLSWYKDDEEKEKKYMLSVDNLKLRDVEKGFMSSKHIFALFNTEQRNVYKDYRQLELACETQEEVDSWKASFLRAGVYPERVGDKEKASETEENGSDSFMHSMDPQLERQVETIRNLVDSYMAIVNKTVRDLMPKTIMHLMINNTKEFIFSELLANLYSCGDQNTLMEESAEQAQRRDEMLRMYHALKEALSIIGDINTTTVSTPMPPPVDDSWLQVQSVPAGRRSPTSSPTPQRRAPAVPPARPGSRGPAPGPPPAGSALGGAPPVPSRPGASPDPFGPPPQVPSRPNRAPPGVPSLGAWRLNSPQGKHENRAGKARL
Description: co-IP; wild-type mouse cortex in Pierce IP buffer (25 mM Tris-HCl pH 7.4, 150 mM NaCl, 1 mM EDTA, 1% NP40, 5% glycerol); IP with anti-β-spectrin or anti-dynamin 1 antibody overnight, rabbit IgG control, dynabeads; blot for 14-3-3θ.

Assay [3] has as its target T3, breakpoint cluster region (M17 neuroblastoma cells) (human (endogenous in SK-N-BE(2)-M17)) (UniProt P11274).
T3 sequence: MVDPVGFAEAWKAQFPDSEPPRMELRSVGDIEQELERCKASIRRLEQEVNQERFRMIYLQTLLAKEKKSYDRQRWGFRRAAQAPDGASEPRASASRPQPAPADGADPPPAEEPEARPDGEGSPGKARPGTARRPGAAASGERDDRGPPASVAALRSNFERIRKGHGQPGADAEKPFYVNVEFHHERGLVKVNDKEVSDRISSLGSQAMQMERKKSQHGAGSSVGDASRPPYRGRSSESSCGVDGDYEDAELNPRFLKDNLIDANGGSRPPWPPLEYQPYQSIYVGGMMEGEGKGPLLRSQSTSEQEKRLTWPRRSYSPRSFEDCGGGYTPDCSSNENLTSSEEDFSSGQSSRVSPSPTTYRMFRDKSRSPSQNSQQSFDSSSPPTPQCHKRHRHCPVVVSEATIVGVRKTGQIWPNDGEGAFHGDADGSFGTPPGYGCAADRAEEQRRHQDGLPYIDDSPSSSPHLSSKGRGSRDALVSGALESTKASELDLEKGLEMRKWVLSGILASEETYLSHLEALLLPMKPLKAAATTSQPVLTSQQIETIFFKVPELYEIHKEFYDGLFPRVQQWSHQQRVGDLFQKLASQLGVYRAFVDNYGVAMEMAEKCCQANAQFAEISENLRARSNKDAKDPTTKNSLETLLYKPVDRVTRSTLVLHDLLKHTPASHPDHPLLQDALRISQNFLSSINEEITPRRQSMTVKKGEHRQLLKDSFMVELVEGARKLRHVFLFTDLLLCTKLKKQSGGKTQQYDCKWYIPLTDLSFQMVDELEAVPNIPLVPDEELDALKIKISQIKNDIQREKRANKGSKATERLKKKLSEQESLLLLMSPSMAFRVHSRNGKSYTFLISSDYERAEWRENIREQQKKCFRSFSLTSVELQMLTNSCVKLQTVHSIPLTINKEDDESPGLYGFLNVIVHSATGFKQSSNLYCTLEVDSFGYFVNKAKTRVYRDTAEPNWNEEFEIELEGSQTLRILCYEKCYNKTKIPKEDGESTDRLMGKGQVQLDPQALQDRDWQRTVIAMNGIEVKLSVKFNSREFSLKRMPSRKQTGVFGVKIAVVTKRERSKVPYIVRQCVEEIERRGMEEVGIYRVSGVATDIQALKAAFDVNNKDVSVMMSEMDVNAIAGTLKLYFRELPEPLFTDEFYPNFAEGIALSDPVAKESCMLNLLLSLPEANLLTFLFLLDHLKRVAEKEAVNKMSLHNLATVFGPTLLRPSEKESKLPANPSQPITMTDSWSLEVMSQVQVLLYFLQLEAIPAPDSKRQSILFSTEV
Put plainly: proximity ligation; fixed M17 cells stably expressing V5-tagged 14-3-3θ S232A or S232D; anti-V5 with anti-NDEL1 or anti-BCR antibody; DuoLink probes; objects per area, normalised.

Assay [4] addresses T4, nuclear distribution protein nude-like 1 (M17 neuroblastoma cells) (human (endogenous in SK-N-BE(2)-M17)) (UniProt Q9GZM8).
T4 sequence: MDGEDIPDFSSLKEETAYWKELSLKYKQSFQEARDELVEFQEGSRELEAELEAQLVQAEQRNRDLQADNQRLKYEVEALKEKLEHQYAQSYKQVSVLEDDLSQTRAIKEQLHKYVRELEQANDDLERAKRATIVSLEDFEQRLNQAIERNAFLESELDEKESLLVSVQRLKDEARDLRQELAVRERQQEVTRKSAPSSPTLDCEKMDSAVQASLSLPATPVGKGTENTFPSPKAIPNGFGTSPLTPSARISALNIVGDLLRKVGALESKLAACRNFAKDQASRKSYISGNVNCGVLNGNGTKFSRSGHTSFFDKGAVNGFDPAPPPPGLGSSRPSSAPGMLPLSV
The description is as above.

B1: 14-3-3θ (endogenous, M17 neuroblastoma cells) (protein, UniProt P27348 1-245)
chain: MEKTELIQKAKLAEQAERYDDMATCMKAVTEQGAELSNEERNLLSVAYKNVVGGRRSAWRVISSIEQKTDTSDKKLQLIKDYREKVESELRSICTTVLELLDKYLIANATNPESKVFYLKMKGDYFRYLAEVACGDDRKQTIDNSQGAYQEAFDISKKEMQPTHPIRLGLALNFSVFYYEILNNPELACTLAKTAFDEAIAELDTLNEDSYKDSTLIMQLLRDNLTLWTSDSAGEECDAAEGAEN
Regarding B1, the binding entry in assay [1] is “binds”.

B2: 14-3-3θ (wild type, mouse cortex) (protein, UniProt P68254 1-245)
chain: MEKTELIQKAKLAEQAERYDDMATCMKAVTEQGAELSNEERNLLSVAYKNVVGGRRSAWRVISSIEQKTDTSDKKLQLIKDYREKVESELRSICTTVLELLDKYLIANATNPESKVFYLKMKGDYFRYLAEVACGDDRKQTIENSQGAYQEAFDISKKEMQPTHPIRLGLALNFSVFYYEILNNPELACTLAKTAFDEAIAELDTLNEDSYKDSTLIMQLLRDNLTLWTSDSAGEECDAAEGAEN
B2: the binding result in assay [2] is given as “binds”.

B3: V5-tagged 14-3-3θ S232A (natural protein, UniProt P27348 1-245, looked up)
chain: MEKTELIQKAKLAEQAERYDDMATCMKAVTEQGAELSNEERNLLSVAYKNVVGGRRSAWRVISSIEQKTDTSDKKLQLIKDYREKVESELRSICTTVLELLDKYLIANATNPESKVFYLKMKGDYFRYLAEVACGDDRKQTIDNSQGAYQEAFDISKKEMQPTHPIRLGLALNFSVFYYEILNNPELACTLAKTAFDEAIAELDTLNEDSYKDSTLIMQLLRDNLTLWTSDAAGEECDAAEGAEN
notes: 14-3-3 protein theta with S232A; also called V5-14-3-3θ phospho-mutant S232A; source: SK-N-BE(2)-M17 cells, stably transfected (fixed cells)
As for B3, in assay [3], the binding result is given as “binds”.

B4: V5-tagged 14-3-3θ S232D (protein, UniProt P27348 1-245)
chain: MEKTELIQKAKLAEQAERYDDMATCMKAVTEQGAELSNEERNLLSVAYKNVVGGRRSAWRVISSIEQKTDTSDKKLQLIKDYREKVESELRSICTTVLELLDKYLIANATNPESKVFYLKMKGDYFRYLAEVACGDDRKQTIDNSQGAYQEAFDISKKEMQPTHPIRLGLALNFSVFYYEILNNPELACTLAKTAFDEAIAELDTLNEDSYKDSTLIMQLLRDNLTLWTSDDAGEECDAAEGAEN
On to B4, for which the binding entry in assay [4] is recorded as “binds”.

The record behind these values is article PMC12714136, “14-3-3θ phosphorylation at S232 reduces its interactome and regulates axonal trafficking” (Disease Models & Mechanisms, 2025).
